The source of these data is PubChem BioAssay AID330 (DTP/NCI, 2004).

Molecules are shown by their SMILES. The list shows only some results of the screen, not a fair sample: it is rich in T/C values a quarter to a half above the control, in often repeated tests (any T/C) and in doses without a T/C. Other doses and runs of a compound stand elsewhere. T/C gives the treated animals as a percentage of the vehicle group. Some doses have a count of surviving animals in place of a T/C: the source holds a T/C of zero for them, seemingly a mark for toxic or unscored doses. Some doses without a T/C left all or most animals alive at the check, yet need not have been tolerated: survival well below the control is almost never listed, so the zero probably covers shortened survival too. Survivors were counted at the toxicity check, usually on the fifth day, unless a day is given; later deaths do not show. Schedules are NCI's codes, taken here to give the interval after Q, in days (D) or hours (H), and the number of doses after X. Some entries were tested several times; the results are listed from low to high. Counts like (3×) give the number of equal values in this list. Where survival is the endpoint, the PubChem record calls one and a half times the control and up active, and a quarter to a half above the control has no call in these data; cut-offs in other NCI protocols can differ. Some T/C values carry the count of animals alive at the toxicity check (mostly the fifth day); where none is given, no animal had died by that day.

The assay relates to P388 leukemia ip, CD2F1 mice, survival T/C. Put plainly: NCI In Vivo Anticancer Drug Screen. Data for tumor model P388 Leukemia (intraperitoneal) in CD2F1 (CDF1) mice. The note with it: T/C endpoint: median survival time, higher T/C = longer survival.
[1] abbreviates: dose: 400.0 mg/kg/injection, schedule: Q04DX003 (ip), vehicle: saline with Tween-80.
Setting [2] is: dose: 12.5 mg/kg/injection, schedule: Q01DX009 (ip), vehicle: saline.
[3] abbreviates: dose: 25.0 mg/kg/injection, schedule: Q01DX009 (ip), vehicle: saline.
The mark [4] stands for this setting: dose: 50.0 mg/kg/injection, schedule: Q01DX009 (ip), vehicle: saline.
[5] abbreviates: dose: 100.0 mg/kg/injection, schedule: Q01DX009 (ip), vehicle: saline with Tween-80.
The mark [6] stands for this setting: dose: 100.0 mg/kg/injection, schedule: Q01DX009 (ip), vehicle: saline.
Where [7] appears, read: dose: 200.0 mg/kg/injection, schedule: Q01DX009 (ip), vehicle: saline.
[8] abbreviates: dose: 600.0 mg/kg/injection, schedule: Q01DX009 (ip), vehicle: saline.
Setting [9] is: dose: 200.0 mg/kg/injection, schedule: Q01DX009 (ip), vehicle: Klucel (hydroxypropylcellulose) (HPC).

Regarding `O=C1C=C(N2CC2)c2ccccc2C1=O`, the T/C runs as follows: (dose: 18.7 mg/kg/injection, schedule: Q01DX009 (ip), vehicle: saline with Tween-80) 131 % of control; (dose: 25.0 mg/kg/injection, schedule: Q04DX003 (ip), vehicle: saline with Tween-80) 140 % of control. For the same molecule, the survivor count is listed as 5 of 6 (dose: 25.0 mg/kg/injection, schedule: Q01DX009 (ip), vehicle: saline with Tween-80); 0 of 6 (dose: 100.0 mg/kg/injection, schedule: Q04DX003 (ip), vehicle: saline with Tween-80); 0 of 6 (dose: 200.0 mg/kg/injection, schedule: Q04DX003 (ip), vehicle: saline with Tween-80); 0 of 6 under setting [1].
Take `N#Cc1nc(CC(=O)c2ccccc2)c(CC(=O)c2ccccc2)nc1C#N`: under “dose: 60.0 mg/kg/injection, schedule: Q01DX005 (ip), vehicle: saline with Tween-80”, the survivor count is 6 of 6.
For `CC1=C(C)C(C#N)N(C)CC1` (configuration not stated), the survivor count (dose: 15.0 mg/kg/injection, schedule: Q01DX005 (ip), vehicle: Klucel (hydroxypropylcellulose) (HPC)) is 0 of 6; the survivor count (dose: 60.0 mg/kg/injection, schedule: Q01DX005 (ip), vehicle: Klucel (hydroxypropylcellulose) (HPC)) is recorded as 0 of 6; the survivor count (dose: 120.0 mg/kg/injection, schedule: Q01DX005 (ip), vehicle: Klucel (hydroxypropylcellulose) (HPC)) is listed as 0 of 6; the survivor count (dose: 240.0 mg/kg/injection, schedule: Q01DX005 (ip), vehicle: Klucel (hydroxypropylcellulose) (HPC)) is 0 of 6.
As to `CCC1CN1P(=O)(OCCC#N)N1CC1CC` (configuration not stated), the survivor count was 6 of 6 under setting [2], 6 of 6 under setting [3] and 6 of 6 under setting [4].
For the molecule `COc1ccc(C[n+]2cc([O-])on2)cc1`, the T/C is, setting by setting: (dose: 50.0 mg/kg/injection, schedule: Q01DX009 (ip), vehicle: saline with Tween-80) 127 % of control; under setting [5], 127 % of control. Further, the survivor count is recorded as 0 of 6, 4 of 6, 5 of 6 under setting [5] and 2 of 6 (dose: 150.0 mg/kg/injection, schedule: Q01DX009 (ip), vehicle: saline with Tween-80).
For the molecule `C[N+](C)=c1ccc2nc3ccc(N)cc3sc-2c1`, the survivor count is 6 of 6 (dose: 3.13 mg/kg/injection, schedule: Q01DX009 (ip), vehicle: saline with Tween-80); 1 of 6 under setting [6]; 0 of 6 under setting [7].
For `O=c1n[n+]([O-])ccn1C1OC(CO)C(O)C1O` (configuration not stated), the T/C under setting [4] was 136 % of control; the T/C under setting [6] is 135 and 138 % of control [5 of 6 alive]; the T/C (dose: 133.5 mg/kg/injection, schedule: Q01DX009 (ip), vehicle: saline) was 148 % of control; the T/C under setting [7] is given as 136, 165, 167, 183 % of control; the T/C (dose: 300.0 mg/kg/injection, schedule: Q01DX009 (ip), vehicle: saline) was 139 % of control; the T/C under setting [8] was 95 % of control. In addition, under setting [8], the survivor count is 0 of 6 (2×) and 3 of 10.
For the molecule `Nc1ncnc2c1ncn2C1C=C(CO)C(O)C1O` (configuration not stated), the T/C (dose: 0.5 mg/kg/injection, schedule: Q01DX009 (ip), vehicle: Klucel (hydroxypropylcellulose) (HPC)) is 132 and 133 % of control; the T/C (dose: 0.5 mg/kg/injection, schedule: Q01DX009 (ip), vehicle: saline) is 143 and 147 % of control; the T/C (dose: 1.0 mg/kg/injection, schedule: Q01DX009 (ip), vehicle: Klucel (hydroxypropylcellulose) (HPC)) was 129 and 133 % of control; the T/C (dose: 1.0 mg/kg/injection, schedule: Q01DX009 (ip), vehicle: saline) is 142 % of control; the T/C (dose: 2.0 mg/kg/injection, schedule: Q01DX009 (ip), vehicle: Klucel (hydroxypropylcellulose) (HPC)) is 127 and 135 % of control; the T/C (dose: 2.0 mg/kg/injection, schedule: Q01DX009 (ip), vehicle: saline) was 144 % of control. The T/C (dose: 4.0 mg/kg/injection, schedule: Q01DX009 (ip), vehicle: saline) was 135 % of control. The survivor count reads like this: (dose: 16.0 mg/kg/injection, schedule: Q01DX009 (ip), vehicle: Klucel (hydroxypropylcellulose) (HPC)) 3 of 6; (dose: 16.0 mg/kg/injection, schedule: Q01DX009 (ip), vehicle: saline) 0 of 6.
Regarding `COc1c(Br)cnc2ccccc12`, the survivor count (dose: 400.0 mg/kg/injection, schedule: Q01DX009 (ip), vehicle: distilled water + Tween-80) is 2 of 6.
For `CC(C(=O)O)c1cccc2nc(-c3ccccc3)oc12` (configuration not stated), for the setting “dose: 400.0 mg/kg/injection, schedule: Q01DX009 (ip), vehicle: saline with Tween-80”, the survivor count is on record as 2 of 6.
Consider `BrCc1cn(Cc2ccccc2)nn1`, for which, under setting [7], the survivor count is recorded as 0 of 6.
Regarding `CC1=CC(=Nc2cc(Br)c(O)c(Br)c2)C=CC1=O`, the survivor count was 4 of 5 (dose: 50.0 mg/kg/injection, schedule: Q01DX005 (ip), vehicle: saline with Tween-80); 0 of 5 (dose: 100.0 mg/kg/injection, schedule: Q01DX005 (ip), vehicle: saline with Tween-80); 0 of 5 (dose: 200.0 mg/kg/injection, schedule: Q01DX005 (ip), vehicle: saline with Tween-80).
As to `Nc1cccc(SC(CC(=O)c2ccc(-c3ccccc3)cc2)c2ccco2)c1` (configuration not stated), the survivor count under setting [9] is recorded as 5 of 6.
Consider `CC(=O)OC/C(C)=N\NS(=O)(=O)c1cc(Cl)c(Cl)cc1Cl`, for which, under setting [7], the survivor count is given as 6 of 6.
With `COCCNCCN1CCN(CCCN2c3ccccc3Sc3ccc(C(F)(F)F)cc32)CC1`, the T/C is 140 % of control under setting [2] and 130 % of control under setting [3]. Moreover, the survivor count is, setting by setting: under setting [2], 5 of 6; under setting [3], 5 of 6; under setting [4], 6 of 6; under setting [6], 0 of 6.
Regarding `C[Si]1(C)CC[Si](C)(C)OS(=O)(=O)O1`, the survivor count (dose: 110.0 mg/kg/injection, schedule: Q01DX005 (ip), vehicle: Klucel (hydroxypropylcellulose) (HPC)) is given as 3 of 5; the survivor count (dose: 212.5 mg/kg/injection, schedule: Q01DX005 (ip), vehicle: Klucel (hydroxypropylcellulose) (HPC)) is given as 2 of 5; the survivor count (dose: 425.0 mg/kg/injection, schedule: Q01DX005 (ip), vehicle: Klucel (hydroxypropylcellulose) (HPC)) was 0 of 5; the survivor count (dose: 850.0 mg/kg/injection, schedule: Q01DX005 (ip), vehicle: Klucel (hydroxypropylcellulose) (HPC)) is 0 of 5.
Regarding `COC1C(N)C(OC2C(Oc3cccc4c(O)c5c(=O)oc6ccc(C)c7c(=O)oc(c34)c5c67)OC(C)C(O)C2(C)O)OC(C)C1O` (configuration not stated), the survivor count by setting is: (dose: 10.0 mg/kg/injection, schedule: Q01DX009 (ip), vehicle: other) 4 of 6; (dose: 20.0 mg/kg/injection, schedule: Q01DX009 (ip), vehicle: other) 0 of 6.
For `CN1CNC(=O)NC1`, under setting [4], the T/C is 126 % of control.
`CNC(C)C#N` (configuration not stated): the survivor count is on record as 0 of 6 (dose: 60.0 mg/kg/injection, schedule: Q01DX005 (ip), vehicle: saline); 0 of 6 (dose: 120.0 mg/kg/injection, schedule: Q01DX005 (ip), vehicle: saline); 0 of 6 (dose: 240.0 mg/kg/injection, schedule: Q01DX005 (ip), vehicle: saline).
With `CCCCCOC(=O)c1ccccc1N`, the survivor count under setting [9] is given as 3 of 6.
For `Nc1ccc2oc3ccccc3c2c1`, the survivor count under setting [1] is listed as 5 of 6.
`C/C=C/C1=C(Cl)C(=O)[C@@H](Cl)[C@@]1(O)C(=O)OC`: the T/C runs as follows: (dose: 2.5 mg/kg/injection, schedule: Q01DX009 (ip), vehicle: saline with Tween-80) 149 % of control; (dose: 5.0 mg/kg/injection, schedule: Q01DX009 (ip), vehicle: saline with Tween-80) 136 % of control; (dose: 10.0 mg/kg/injection, schedule: Q01DX009 (ip), vehicle: saline with Tween-80) 129 % of control. The survivor count (dose: 20.0 mg/kg/injection, schedule: Q01DX009 (ip), vehicle: saline with Tween-80) is recorded as 2 of 3.
